Measurements published in the supplement of paper PMC4604168 (melanoma cell lines).
Some of the results follow. Repeats are few or missing, and single values can be far off.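 The apoptosis fraction was the count of cleaved-PARP antibody-stained nuclei relative to all DNA-stained nuclei, imaged in 1,536-well plates. Screening doses were set so most cells survived, and baseline and induced cleaved-PARP levels vary greatly across cell lines.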

The compounds below were run on CBRC008 (line from a melanoma biopsy) (assay: cleaved PARP positive nuclei fraction relative to DMSO control; melanoma cells; higher = more apoptosis). Settings: library dose: low library concentration; 72 h.

| SMILES | cleaved PARP positive nuclei fraction [%] |
| --- | --- |
| NC1(c2ccc(-c3nc4ccn5c(=O)[nH]nc5c4cc3-c3ccccc3)cc2)CCC1 + Cc1cc([N+](=O)[O-])ccc1NS(=O)(=O)c1cc(Cl)ccc1Cl [FH535] (first compound 0.4 µM, partner dose 1 µM) | 376 |
| Cn1cnc2c(F)c(Nc3ccc(Br)cc3Cl)c(C(=O)NOCCO)cc21 [selumetinib] + Cn1cc(/C=C2\C(=O)Nc3cccnc32)c2ccccc21 [GW441756] (first compound 0.015 µM, partner dose 0.4 µM) | 241 |
| CC(=O)O[C@@]12CO[C@@H]1C[C@H](O)[C@@]1(C)C(=O)[C@H](O)C3=C(C)[C@@H](OC(=O)[C@H](O)[C@@H](NC(=O)OC(C)(C)C)c4ccccc4)C[C@@](O)([C@@H](OC(=O)c4ccccc4)[C@H]21)C3(C)C [Docetaxel] + COc1ccc2c(c1)CCC1C2CCC2(C)C(NCCCCCCN3C(=O)C=CC3=O)CCC12 [U73122] (first compound 0.0001 µM, partner dose 0.4 µM) | 244 |
| CN(c1ncccc1CNc1nc(Nc2ccc3c(c2)CC(=O)N3)ncc1C(F)(F)F)S(C)(=O)=O + Oc1cc(-c2nc(-c3ccccc3)[nH]c2-c2ccncc2)ccc1Cl [L779450] (first compound 0.08 µM, partner dose 0.2 µM) | 177 |
| CCN(CC)CCNC(=O)c1c(C)[nH]c(/C=C2\C(=O)Nc3ccc(F)cc32)c1C [sunitinib] + O=c1cc(-c2cccc3c2Sc2ccccc2S3)oc(N2CCOCC2)c1 [KU55933] (first compound 0.4 µM, partner dose 1 µM) | 86 |
| CC1(C)CCC(c2ccc(Cl)cc2)=C(CN2CCN(c3ccc(C(=O)NS(=O)(=O)c4ccc(N[C@H](CCN5CCOCC5)CSc5ccccc5)c(S(=O)(=O)C(F)(F)F)c4)cc3)CC2)C1 + COC(=O)c1sccc1S(=O)(=O)Nc1ccc(Nc2ccccc2)cc1OC [GSK0660] (first compound 0.4 µM, partner dose 1 µM) | 317 |
| COc1ccc(C2=N[C@@H](c3ccc(Cl)cc3)[C@@H](c3ccc(Cl)cc3)N2C(=O)N2CCNC(=O)C2)c(OC(C)C)c1 [Nutlin-3] + COc1ccc(COc2ccc(Cc3cnc(N)nc3N)cc2OC)cc1 [GW2580] (first compound 0.1 µM, partner dose 1 µM) | 139 |
| Cn1cnc2c(F)c(Nc3ccc(Br)cc3Cl)c(C(=O)NOCCO)cc21 [selumetinib] + COc1ccc2c(c1)CCC1C2CCC2(C)C(NCCCCCCN3C(=O)C=CC3=O)CCC12 [U73122] (first compound 0.015 µM, partner dose 0.4 µM) | 151 |
| CC(=O)O[C@@]12CO[C@@H]1C[C@H](O)[C@@]1(C)C(=O)[C@H](O)C3=C(C)[C@@H](OC(=O)[C@H](O)[C@@H](NC(=O)OC(C)(C)C)c4ccccc4)C[C@@](O)([C@@H](OC(=O)c4ccccc4)[C@H]21)C3(C)C [Docetaxel] + Cn1cc(/C=C2\C(=O)Nc3cccnc32)c2ccccc21 [GW441756] (first compound 0.0001 µM, partner dose 0.4 µM) | 271 |
| NC(=O)c1ccc(N(C(N)=O)c2c(F)cccc2F)nc1-c1ccc(F)cc1F + O=C(Nc1ccccc1)c1cc([N+](=O)[O-])ccc1Cl [GW9662] (first compound 0.4 µM, partner dose 2 µM) | 56.9 |
| CC1(C)CCC(c2ccc(Cl)cc2)=C(CN2CCN(c3ccc(C(=O)NS(=O)(=O)c4ccc(N[C@H](CCN5CCOCC5)CSc5ccccc5)c(S(=O)(=O)C(F)(F)F)c4)cc3)CC2)C1 + O=C(Nc1ccccc1)c1cc([N+](=O)[O-])ccc1Cl [GW9662] (first compound 0.4 µM, partner dose 2 µM) | 218 |
| CCN(CC)CCNC(=O)c1c(C)[nH]c(/C=C2\C(=O)Nc3ccc(F)cc32)c1C [sunitinib] + COc1ccc(COc2ccc(Cc3cnc(N)nc3N)cc2OC)cc1 [GW2580] (first compound 0.4 µM, partner dose 1 µM) | 126 |
| NC(=O)c1ccc(N(C(N)=O)c2c(F)cccc2F)nc1-c1ccc(F)cc1F + O=c1cc(-c2cccc3c2Sc2ccccc2S3)oc(N2CCOCC2)c1 [KU55933] (first compound 0.4 µM, partner dose 1 µM) | 150 |
| CCN(CC)CCNC(=O)c1c(C)[nH]c(/C=C2\C(=O)Nc3ccc(F)cc32)c1C [sunitinib] + c1cc(-c2cnn3cc(-c4ccc(OCCN5CCCCC5)cc4)cnc23)ccn1 [Dorsomorphin] (first compound 0.4 µM, partner dose 0.4 µM) | 35.5 |
| C[C@]1(O)C[C@@H](c2nc(-c3ccc4ccc(-c5ccccc5)nc4c3)c3c(N)nccn32)C1 + Oc1nc(-c2ccc(C(F)(F)F)cc2)nc2c1CSCC2 [XAV939] (first compound 0.4 µM, partner dose 2 µM) | 240 |
| C[C@@H](N)c1ccc(C(=O)Nc2ccnc3[nH]ccc23)cc1 + COc1ccc(-c2ccc3c(N4CCOCC4)nc(N4C[C@@H](C)O[C@@H](C)C4)nc3n2)cc1CO [KU0063794] (first compound 0.4 µM, partner dose 0.02 µM) | 45.3 |
| CCCCCCCCc1ccc(CCC(N)(CO)CO)cc1 [fingolimod] + O=C(O)C(=O)Nc1sc2c(c1C(=O)O)CCNC2 [TCS401] (first compound 2 µM, partner dose 1.66667 µM) | 120 |
| CCN(CC)CCNC(=O)c1c(C)[nH]c(/C=C2\C(=O)Nc3ccc(F)cc32)c1C [sunitinib] + Cn1cc(/C=C2\C(=O)Nc3cccnc32)c2ccccc21 [GW441756] (first compound 0.4 µM, partner dose 0.4 µM) | 24.4 |
| CC1(C)CCC(c2ccc(Cl)cc2)=C(CN2CCN(c3ccc(C(=O)NS(=O)(=O)c4ccc(N[C@H](CCN5CCOCC5)CSc5ccccc5)c(S(=O)(=O)C(F)(F)F)c4)cc3)CC2)C1 + c1cc(-c2cnn3cc(-c4ccc(OCCN5CCCCC5)cc4)cnc23)ccn1 [Dorsomorphin] (first compound 0.4 µM, partner dose 0.4 µM) | 283 |
| C[C@@H](N)c1ccc(C(=O)Nc2ccnc3[nH]ccc23)cc1 + COC(=O)c1sccc1S(=O)(=O)Nc1ccc(Nc2ccccc2)cc1OC [GSK0660] (first compound 0.4 µM, partner dose 1 µM) | 122 |
| CCCCCCCCc1ccc(CCC(N)(CO)CO)cc1 [fingolimod] + COc1ccc(-c2ccc3c(N4CCOCC4)nc(N4C[C@@H](C)O[C@@H](C)C4)nc3n2)cc1CO [KU0063794] (first compound 2 µM, partner dose 0.02 µM) | 40 |
| CCCCCCCCc1ccc(CCC(N)(CO)CO)cc1 [fingolimod] + N#Cc1c(O)c2c(-c3ccc(-c4ccccc4O)cc3)csc2[nH]c1=O [A769662] (first compound 2 µM, partner dose 2 µM) | 58.7 |

Another view of some results above:
SMILES	cleaved PARP positive nuclei fraction [%]
Cn1cnc2c(F)c(Nc3ccc(Br)cc3Cl)c(C(=O)NOCCO)cc21 [selumetinib] + Cn1cc(/C=C2\C(=O)Nc3cccnc32)c2ccccc21 [GW441756] (first compound 0.015 µM, partner dose 0.4 µM)	241
NC(=O)c1ccc(N(C(N)=O)c2c(F)cccc2F)nc1-c1ccc(F)cc1F + O=C(Nc1ccccc1)c1cc([N+](=O)[O-])ccc1Cl [GW9662] (first compound 0.4 µM, partner dose 2 µM)	56.9
